# Out of some 400,000 compounds screened, about 13,000 (3.2%) were called active. The inconclusive results got no clear call from the source; some entries with a clear call stand among them for comparison. Calls follow the shape of the dose curve; as a rule, active = well fitted cell-killing curve with a large enough effect; inconclusive = small, poorly fitted or top-dose-only effect, or effect the other way; inactive = flat fitted curve, though single readings scatter. Potencies beside an inconclusive call are fits to weak or partial responses and may not hold up.
# Assay: qHTS assay for MDR1-selective chemotherapeutics: Primary screen using the drug-selected MDR subline cells KB-V1; also: nearly all actives have a fitted effect of over 60% in size
# Details: KB-V1 MDR cells viability, CellTiter-Glo, 72 h; series mostly up to 46.1 µM
# How it was run: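 Cells of the MDR subline KB-V1 are plated, dosed with compound at multiple concentrations, and incubated 72 h at 37 degrees C; CellTiter-Glo is then added and luminescence read after 10 min.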
# Potency is read from the fitted curve at half-maximal effect.
row,Compound,Potency
1,Cc1cc(S(=O)(=O)N2CCN(c3ccc(F)cc3)CC2)c(C)s1,"inconclusive: 29.1 µM [cytotoxic, single point]"
2,Cc1nc2ccccc2n1CCc1nc2c3ccccc3nc(SCC(=O)Nc3cccc(C(F)(F)F)c3)n2n1,"inconclusive: 29.1 µM [cytotoxic, single point]"
3,Cc1ccc(CN2CC(C(=O)NCC(=O)Nc3c(C)cccc3C)CC2=O)cc1 (configuration not stated),"inconclusive: 29.1 µM [rising, single point]"
4,CCC(C)n1c(-c2cccc(S(=O)(=O)N(CC)CC)c2)n[nH]c1=S (configuration not stated),"inconclusive: 20.6 µM [cytotoxic, single point]"
5,O=[N+]([O-])c1ccccc1Oc1cnc2ccccc2n1,inactive
6,Cc1ccccc1CN1CCN(S(C)(=O)=O)CC1,"inconclusive: 0.58 µM [cytotoxic, partial curve, poor fit]"
7,Cc1cc(C)nc(NS(=O)(=O)c2ccc(NC(=O)c3ccccc3O)cc2)n1,inactive
8,Nc1nc(NCCCN2CCOCC2)nc(Nc2ccccc2F)c1[N+](=O)[O-],inactive
9,CCCCOc1ccc(C(=O)N2CC(=O)Nc3ccc(Br)cc3C2c2ccc(F)cc2)cc1 (configuration not stated),"inconclusive: 23.1 µM [cytotoxic, single point]"
10,COc1ccc(S(=O)(=O)N2CCOCC2)cc1NC(=O)CCNC(=O)c1ccc(Br)cc1,inactive
11,Cc1ccccc1NC(=O)CSc1nc(-c2ccc(F)cc2)nc2c1Cc1ccccc1O2,"inconclusive: 14.6 µM [rising, partial curve]"
12,CCOc1ccc(C(=O)NCC2OCCc3ccccc32)cc1 (configuration not stated),"inconclusive: 18.4 µM [cytotoxic, single point]"
13,COc1cccc(OC)c1CNC(=O)C1CCC(=O)N(CC2CCCCC2)C1 (configuration not stated),inactive
14,Cn1c(=O)n(-c2ccc3c(c2)OCO3)c2nc(-c3ccc(Cl)cc3)nc(C(N)=O)c21,inactive
15,Cc1sc2ncnc(SCC(=O)Nc3ccc(CN4CCCC4)cc3)c2c1C,"inconclusive: 29.1 µM [rising, single point]"
16,CCOC(=O)c1cnc2c(OC)cccc2c1N1CCN(c2ccccc2OC)CC1,"inconclusive: 29.1 µM [cytotoxic, single point]"
17,COc1ccc(S(=O)(=O)N2CCOCC2)cc1NC(=O)CN1C(=O)NC2(CCCC2)C1=O,"inconclusive: 16.4 µM [rising, single point]"
18,CC(C)OC(=O)c1nnn(-c2nonc2N)c1CSc1ccccn1,"inconclusive: 16.4 µM [cytotoxic, single point]"
19,COCCNC(=O)COC(=O)c1[nH]c(C)c(C(C)=O)c1C,"inconclusive: 20.6 µM [rising, single point]"
20,CSc1nccc(NC(=O)c2cccc(Br)c2)n1,"inconclusive: 20.6 µM [cytotoxic, single point]"
21,O=C(COc1ccc([N+](=O)[O-])cc1Cl)Nc1ccc2[nH]c(=O)[nH]c2c1,"inconclusive: 29.1 µM [rising, single point]"
22,COC(=O)c1sc(S(=O)(=O)N2CCC(C(=O)O)CC2)c(C(=O)OC)c1C,"inconclusive: 18.4 µM [rising, single point]"
23,CC(Nc1nc(-c2ccc(Cl)cc2)cs1)c1nc2cc(Cl)c(N3CCCCC3)cc2n1CCOCCO (configuration not stated),"inconclusive: 32.6 µM [cytotoxic, single point]"
24,O=C(/C=C/c1ccccc1)C1=C(O)C(=O)N(CCO)C1c1ccc2c(c1)OCO2 (configuration not stated),inactive

row,Compound,Potency
1,Cc1ccc(C)c(NC(=O)CN2C(=O)C3(SCC(=O)N3c3ccc(C)c(C)c3)c3ccccc32)c1 (configuration not stated),inactive
2,CCCCCc1c(-c2cccc(Cl)c2)ncn1CCc1ccccc1OC,"inconclusive: 20.6 µM [cytotoxic, single point]"
3,CC(C)Sc1nnc([C@H](Cc2ccccc2)NC(=O)OC(C)(C)C)o1,"inconclusive: 4.61 µM [cytotoxic, full curve]"
4,Cc1ccc2nc(-c3ccc(Cl)c(NC(=O)c4ccc5c(c4)OCCO5)c3)oc2c1,inactive
5,Cc1nnc(NCc2ccc(Cl)cc2)c2c1nnn2Cc1ccc(F)cc1,"inconclusive: 29.1 µM [rising, single point]"
6,CC1CCc2nc3ncn(Cc4ccc(Cl)cc4)c(=O)c3cc2C1 (configuration not stated),inactive
7,Cc1cc(NC(=O)c2oc3ccccc3c2C)ccc1-n1cnnn1,"inconclusive: 20.6 µM [cytotoxic, single point]"
8,COC(=O)/C=C/c1oc2ccccc2c1C,inactive
9,COCCn1c(SCC(=O)Nc2ccccc2)nnc1-c1ccoc1C,inactive
10,CN(C)CCNc1ncnc2c1cnn2-c1ccc(Cl)cc1,"inconclusive: 29.1 µM [cytotoxic, single point]"
11,Clc1ccc(-n2nnnc2CN2CCCCC2)cc1Cl,active: 13 µM
12,Cc1cc(N2CCOCC2)nc2ccc(NC(=O)CCC(=O)N3CCN(c4ccccc4F)CC3)cc12,"inconclusive: 6.51 µM [cytotoxic, partial curve]"
13,CCN1C(=N)N(c2ccccc2)C(=O)C(CC)(CC)C1=O,inactive
14,COc1ccccc1N(C)S(=O)(=O)c1ccc(C(=O)O)cc1,"inconclusive: 7.31 µM [rising, full curve, poor fit]"
15,CCCc1cn(CC(C)n2c(=O)c3ccccc3n2Cc2cc(C(C)C)no2)nn1 (configuration not stated),inactive
16,COC(=O)c1ccccc1NC(=O)c1cc(-c2ccc(Cl)cc2)on1,inactive
17,CCOC(=O)C1(CCc2ccccc2)CCN(C2Cc3ccccc3C2)CC1,inactive
18,CN1CCN(Nc2nn3c(=O)c4ccccc4nc3s2)CC1,"inconclusive: 29.1 µM [cytotoxic, single point]"
19,COc1cc(OC)c(NC(=O)c2cc(C(C)=O)n3ccccc23)cc1Cl,inactive
20,Nc1ncnc2nn(C3OC(CO)C(O)C3O)nc12 (configuration not stated),"inconclusive: 29.1 µM [cytotoxic, single point]"
21,Cc1ccc(OCC(O)CNS(=O)(=O)c2ccccc2C(=O)O)cc1 (configuration not stated),inactive
22,O=C(NCc1ccccc1)C1C(=O)N(Cc2ccccc2)C(=O)C1C1(O)CCCC1 (configuration not stated),"inconclusive: 10.3 µM [cytotoxic, partial curve, poor fit]"
23,O=C(C1CCC(C(=O)N2CCc3ccccc32)CC1)N1CCc2ccccc21 (configuration not stated),inactive
24,CC(=O)c1cccc2c(O)c(C3=Nc4ccccc4C3=O)[nH]c12,"inconclusive: 20.6 µM [cytotoxic, single point]"

row,Compound,Potency
1,Brc1ccc(-c2noc(-c3ccccc3)n2)o1,inactive
2,COCCNC(=O)CCCn1c(=O)[nH]c2ccsc2c1=O,"inconclusive: 7.31 µM [rising, partial curve]"
3,O=C(CCN(CCO)Cc1ccccc1)Nc1ccc(Br)cc1,active: 14.6 µM
4,Cc1ccc(NC2=C(NC(=O)c3ccccc3)C(=O)c3ccccc3C2=O)cc1Cl,"inconclusive: 3.26 µM [cytotoxic, full curve, poor fit]"
5,COc1ccc(C)cc1NS(=O)(=O)c1c(C)nc2sc(C)cn2c1=O,"inconclusive: 1.16 µM [cytotoxic, full curve]"
6,COCCNC(=O)C1CCCN(Cc2ccccc2Cl)CC1 (configuration not stated),inactive
7,COc1ccc(C(=O)OCC(=O)Nc2cc(C)on2)cc1F,inactive
8,Cn1c(=O)c2c(SCC(=O)NC3CCCC3)nc(CC(C)(C)C)nc2n(C)c1=O,inactive
9,CCCCn1c(SCc2c(C)noc2C)nc2cc(S(N)(=O)=O)ccc21,inactive
10,COc1ccc(NC(=O)c2sc3nc(C)c(C(=O)Nc4ccc(C)cc4C)c(-c4ccccc4Cl)c3c2N)cc1,"inconclusive: 29.1 µM [rising, single point]"
11,O=C(Nc1ccccn1)c1cccs1,inactive
12,CC1(C)CC2CC(C)(CN2/C=N/c2sc3c(c2C#N)CC(C)(C)NC3(C)C)C1 (configuration not stated),"inconclusive: 32.6 µM [cytotoxic, single point]"
13,CCOC(=O)N1CCN(Cc2nc3ccc([N+](=O)[O-])cc3c(=O)n2-c2ccccc2F)CC1,"inconclusive: 29.1 µM [cytotoxic, single point]"
14,COc1ccc(/C=C/C(=O)OCC(=O)NC2CCCC(C)C2C)c(OC)c1 (configuration not stated),"inconclusive: 0.0231 µM [rising, full curve]"
15,CCCN1CCC(=O)N([C@H](CSc2ccccc2)CC(C)C)CC1,"inconclusive: 2.31 µM [cytotoxic, partial curve]"
16,Cc1sc(NC(=O)c2cccc([N+](=O)[O-])c2)c(C(N)=O)c1-c1ccc(C(C)(C)C)cc1,inactive
17,O=C(CCc1ccccc1)NC(=S)Nc1ccc(S(=O)(=O)N2CCOCC2)cc1,active: 4.61 µM
18,Cc1cccc(NC(=O)C2CCN(S(=O)(=O)c3cccs3)CC2)n1,active: 23.1 µM
19,O=C1CC(C(=O)Nc2cc(Cl)ccc2Cl)n2ncnc2N1 (configuration not stated),inactive
20,CCc1ccc(C2CC(c3ccco3)=NN2S(C)(=O)=O)cc1 (configuration not stated),"inconclusive: 14.6 µM [cytotoxic, partial curve, poor fit]"
21,O=C(Nc1nccs1)c1cccc(N2C(=O)c3cccc4c([N+](=O)[O-])ccc(c34)C2=O)c1,"inconclusive: 25.9 µM [cytotoxic, single point]"
22,CCOC(=O)N1CCN(S(=O)(=O)c2ccc(C(=O)Nc3ccc(F)cc3F)cc2)CC1,"inconclusive: 3.66 µM [cytotoxic, partial curve, poor fit]"
23,CC(C)c1ccc(NC2CCCN(C(=O)c3ccsc3)C2)cc1 (configuration not stated),"inconclusive: 29.1 µM [cytotoxic, partial curve, poor fit]"
24,CCOc1ccc(NS(=O)(=O)c2ccc3[nH]cc(C(=O)NCCOC)c(=O)c3c2)cc1,"inconclusive: 29.1 µM [rising, single point]"

# Some of the entries so far, as tab-separated lines:
row	Compound	Potency
18	Cc1cccc(NC(=O)C2CCN(S(=O)(=O)c3cccs3)CC2)n1	active: 23.1 µM
19	O=C1CC(C(=O)Nc2cc(Cl)ccc2Cl)n2ncnc2N1 (configuration not stated)	inactive
20	CCc1ccc(C2CC(c3ccco3)=NN2S(C)(=O)=O)cc1 (configuration not stated)	inconclusive: 14.6 µM [cytotoxic, partial curve, poor fit]
21	O=C(Nc1nccs1)c1cccc(N2C(=O)c3cccc4c([N+](=O)[O-])ccc(c34)C2=O)c1	inconclusive: 25.9 µM [cytotoxic, single point]
22	CCOC(=O)N1CCN(S(=O)(=O)c2ccc(C(=O)Nc3ccc(F)cc3F)cc2)CC1	inconclusive: 3.66 µM [cytotoxic, partial curve, poor fit]
23	CC(C)c1ccc(NC2CCCN(C(=O)c3ccsc3)C2)cc1 (configuration not stated)	inconclusive: 29.1 µM [cytotoxic, partial curve, poor fit]
